From PubChem BioAssay AID2685 (National Center for Advancing Translational Sciences (NCATS), 2010)
This is one part of the list. These are further read-outs of the screen, such as a control signal, another cell line or another target. No call is given for them. The list favours compounds with an active or inconclusive main result. Potencies come from curve fits of mixed quality, noted in brackets.

Experiment: qHTS Assay for Lipid Storage Modulators in Drosophila S3 Cells;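 for cell number change: cells counted by Cell Tracker Red CMTPX staining in the red channel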
Details: BODIPY lipid droplet fluorescence, 18-24 h; for cell number change: measured here: cell count max response, cells fed with added oleic acid
Summary of the method: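 Drosophila S3 cells loaded with oleic acid (400 uM, as added) and compounds at several concentrations; lipid droplets imaged by 488-nm laser-scanning cytometry, 500–530 nm intensity and object ratio to cell channel. Percent activity normalized to 20 uM Triacsin C.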

[1] = measured here: lipid fluorescence (Fed channel) AC50, cells fed with added oleic acid
[2] = measured here: cell number channel AC50, cells fed with added oleic acid

| SMILES | cell number change [%] | AC50 [1] | AC50 [2] |
| --- | --- | --- | --- |
| CCOc1ccc2nc(N(CCN(C)C)C(=O)c3ccc4c(c3)CCCC4)sc2c1 | 10.4 | 14.6 µM [falling, single point] | – |
| Cc1nn(Cc2ccc(Cl)cc2)c(C)c1NC(=O)CSc1n[nH]c(C)c1[N+](=O)[O-] | 26.6 | 18.4 µM [rising, single point] | – |
| CC(NS(=O)(=O)c1ccc(Cl)cc1)C(=O)Nc1ccc2c(c1)OCCO2 (stereo not given) | -23.7 | – | – |
| COc1ccc(CN(CC(=O)NCc2ccc(F)cc2)C(=O)CCC(=O)Nc2cc(C)ccn2)cc1 | – | 29.1 µM [falling, single point] | – |
| O=[N+]([O-])c1cccc(Cl)c1NCCNS(=O)(=O)c1ccc(Cl)cc1 | -27.8 | 16.4 µM [falling, single point] | – |
| Cc1cccc(C(=O)NCCN2CCN(c3ccccc3)CC2)c1 | -28.4 | 20.6 µM [falling, partial curve, poor fit] | – |
| O=C(Nc1ccccc1Cl)O/N=C(/c1ccccc1)c1ccccn1 | 20.1 | 58 µM [rising, partial curve, poor fit] | – |
| Cc1oc(-c2ccccc2Cl)nc1CS(=O)CC(=O)NCc1cccs1 (stereo not given) | 46.3 | 0.146 µM [falling, full curve, poor fit] | 6.51 µM [rising, single point] |
| COc1ccc(CC(=O)N2CCN(c3ccccn3)CC2)cc1OC | 10.5 | 25.9 µM [rising, single point] | 2.06 µM [rising, partial curve] |
| CC1c2cc3c(cc2CCN1C(=O)c1ccc(C(F)(F)F)cc1)OCCCO3 (stereo not given) | -4.72 | 6.51 µM [rising, single point] | 4.61 µM [rising, single point] |
| Cc1cc2c(C)nc(-c3ccccc3)nc2o1 | 1.53 | 0.164 µM [rising, full curve, poor fit] | 0.326 µM [rising, partial curve] |
| CCOc1ccc(/C=N\NC(=O)CC(=O)NCCc2ccccc2)cc1 | -8.29 | 6.51 µM [falling, single point] | – |
| COC(=O)c1ccccc1S(=O)(=O)N1CCC(C(=O)NCc2ccco2)CC1 | -12.4 | 0.58 µM [falling, full curve] | – |
| CC(=O)NC(c1ccccc1)c1cc(Cl)c2cccnc2c1O (stereo not given) | -17.8 | 6.51 µM [rising, single point] | – |
| COc1cc(NC(=O)CSc2nnnn2-c2ccccc2)cc(OC)c1OC | -8.65 | 0.92 µM [rising, full curve, poor fit] | – |
| CC1(C)OC(=O)C(=CNc2ccccc2F)C(=O)O1 | -201 | 20.6 µM [falling, partial curve] | 18.4 µM [falling, partial curve] |
| CCCCn1c(N)c(N(CC)C(=O)CCc2ccccc2)c(=O)[nH]c1=O | 2.69 | 7.31 µM [falling, full curve, poor fit] | – |
| CN1CCN(c2ccc(S(=O)(=O)N3CCCCC3)cc2NC(=O)COc2cccc(Cl)c2)CC1 | 16.3 | 0.82 µM [rising, single point] | – |
| Cc1ccc(C(=O)NCCCNC(=O)COc2ccc(C)c(C)c2)cn1 | 16.4 | 11.6 µM [falling, partial curve] | – |
| COc1cccc(C2CC(c3ccccc3Cl)n3ncnc3N2)c1 (stereo not given) | -32.7 | – | 11.6 µM [falling, partial curve] |

| SMILES | cell number change [%] | AC50 [1] | AC50 [2] |
| --- | --- | --- | --- |
| COC(CNC(=O)Cn1ncc2ccsc2c1=O)OC | -29 | 0.731 µM [falling, full curve] | – |
| CC(Sc1nnc(-c2cccs2)n1C1CC1)C(=O)NCC1CCCO1 (stereo not given) | 9.49 | 6.51 µM [rising, single point] | – |
| O=C(CN1CCCCC1)N1c2ccccc2Oc2ccccc21 | 3.62 | 2.06 µM [falling, partial curve] | – |
| Cc1ccccc1C(=O)Nc1ccnn1C1CCN(Cc2ccc(CO)o2)CC1 | – | 10.3 µM [rising, partial curve] | – |
| CC(OC(=O)c1ccc2ccccc2n1)C(=O)Nc1ccc(N2CCOCC2)cc1 (stereo not given) | -0.0714 | 0.116 µM [rising, full curve, poor fit] | – |
| c1ccc(COCCC2CO2)cc1 (stereo not given) | 17.5 | 29.1 µM [rising, single point] | – |
| CC1CCN(C(=O)CN2C(=O)NC(c3ccccc3)(c3ccccc3)C2=O)CC1 | -3.76 | 1.16 µM [falling, full curve, poor fit] | – |
| O=c1ccc(/C=C/c2ccccc2)nn1Cc1ccccc1Cl | -44.3 | 20.6 µM [falling, single point] | 18.4 µM [falling, single point] |
| O=C(CN1C(=O)NC2(CCCCC2)C1=O)Nc1cc(C(F)(F)F)ccc1N1CCCC1 | – | – | 0.116 µM [falling, full curve, poor fit] |
| COc1ccc(CCNC(=O)c2nnc(Cc3c(F)cccc3Cl)o2)cc1OC | -8.07 | 11.6 µM [rising, partial curve] | – |
| COc1ccc(OCc2nnc3n2N=C(c2ccc(C)cc2)CS3)cc1 | – | 0.00517 µM [rising, full curve, poor fit] | 0.116 µM [rising, partial curve, poor fit] |
| COc1ccccc1NC(=O)c1ccc(S(=O)(=O)N2CCOCC2)cc1 | -2.69 | – | – |
| O=C(NCCOc1ccc(Cl)cc1)c1ccc2c(c1)OCCO2 | -23.2 | 18.4 µM [falling, single point] | – |
| CNc1nc(-c2ccccc2)nc(-c2ccccc2)c1C#N | -0.574 | 0.58 µM [rising, full curve] | – |
| CC1CCC(N2CCN(S(=O)(=O)Cc3ccccc3)CC2)CC1 (stereo not given) | -5.86 | 3.26 µM [rising, partial curve, poor fit] | – |
| Cc1ccc(NC(=S)NC(=O)c2ccc(-c3ccc(Cl)cc3)o2)c(O)c1 | -58.4 | 10.3 µM [falling, partial curve] | 16.4 µM [falling, partial curve] |
| O=C(CSc1nc2ncccc2[nH]1)Nc1ccc2c(c1)OCCO2 | 27 | 29.1 µM [rising, single point] | – |
| S=C(NCc1ccncc1)Nc1ccc(Cl)cc1Cl | 0.216 | – | – |
| Cc1csc(N2CCN(c3cc4c(cc3Cl)nc(-c3ccncc3)n4CCCN3CCCC3)CC2)n1 | -4.49 | 29.1 µM [rising, single point] | – |
| COc1ccc(CNC(=O)C2CCN(S(=O)(=O)N3CCC4(CC3)OCCO4)CC2)c(OC)c1 | 16.9 | 11.6 µM [rising, partial curve, poor fit] | – |

| SMILES | cell number change [%] | AC50 [1] | AC50 [2] |
| --- | --- | --- | --- |
| Cc1cc(Cl)c2oc(C(=O)N3CCC(O)(c4ccccc4)CC3)c(C)c2c1 | -26.5 | 29.1 µM [rising, single point] | – |
| NC(N)=NS(=O)(=O)c1ccc(NC(=S)NC(=O)Cc2ccc(Cl)cc2)cc1 | 18.7 | – | – |
| Cc1ccc(N(C(=O)CNC(=O)c2ccco2)C(C(=O)NC2CCCCC2)c2cccnc2)cc1C (stereo not given) | 17.5 | 0.116 µM [rising, single point] | – |
| COc1cccc(/C(C)=N/Nc2ncc(Cl)cc2Cl)c1 | 8.61 | 5.17 µM [rising, partial curve, poor fit] | – |
| COc1ccc(C(=O)Nc2ccccc2C(=O)N/N=C/c2ccncc2)cc1OC | 10.7 | 1.03 µM [rising, partial curve, poor fit] | 5.17 µM [rising, partial curve, poor fit] |
| COc1ccc(OC)c(S(=O)(=O)N2CCCC2C(=O)NC(C)c2ccccc2)c1 (stereo not given) | -5.77 | – | – |
| COc1ccc(-c2csc(C3=C(O)CN(Cc4ccc(Cl)cc4)C3=N)n2)cc1OC | -2.63 | 1.16 µM [rising, partial curve] | 0.184 µM [rising, partial curve, poor fit] |
| CN(C)c1ccc(-c2ccc([C@H]3[C@@H]4C=CCC[C@@]4(C)C(=O)N3Cc3ccccc3)c(F)c2)cc1 | -29.5 | 29.1 µM [falling, single point] | – |
| Cc1ccc(CNc2ncc(-c3ccc4c(c3)OCO4)n2C)cc1 | 4.61 | 4.61 µM [rising, partial curve] | – |
| CC(=O)N1CCN(C(=O)c2ccccc2NS(=O)(=O)c2ccc(F)cc2)CC1 | 17.1 | 25.9 µM [falling, single point] | – |
| Cn1c(=O)c(C(=O)CN2CCCc3ccccc32)c(N)n(Cc2ccccc2)c1=O | -33.3 | 18.4 µM [falling, single point] | 18.4 µM [falling, single point] |
| Cc1ccccc1C(=O)OCc1cnc(Cl)s1 | 9.59 | 1.16 µM [falling, single point] | – |
| CCOCCSc1nnc2nc(C)cc(C)n12 | 10.8 | – | – |
| COc1ccc(N2CCN(C(=O)c3cc(-c4ccc(F)cc4)[nH]c3C)CC2)cc1 | -14.1 | – | – |
| CCN(CC(=O)Nc1c(F)cccc1F)C(=O)c1ccc(-c2ccc(C(C)=O)cc2)o1 | 10.5 | 0.058 µM [falling, full curve, poor fit] | – |
| Cc1ccccc1/C=N/NC(=O)Cn1cnc([N+](=O)[O-])n1 | 8.63 | 29.1 µM [falling, single point] | – |
| Cc1ccc(/C=C/C(=O)Nc2ccc([N+](=O)[O-])cc2)o1 | -35.8 | – | 7.31 µM [falling, full curve, poor fit] |
| Cc1ccc(S(=O)(=O)N2CCC(C(=O)N/N=C/c3ccncc3)CC2)cc1 | -51.2 | – | – |

Laid out differently: results already given.
SMILES	cell number change [%]	AC50 [1]	AC50 [2]
Cc1ccc(N(C(=O)CNC(=O)c2ccco2)C(C(=O)NC2CCCCC2)c2cccnc2)cc1C (stereo not given)	17.5	0.116 µM [rising, single point]	–
COc1cccc(/C(C)=N/Nc2ncc(Cl)cc2Cl)c1	8.61	5.17 µM [rising, partial curve, poor fit]	–
COc1ccc(C(=O)Nc2ccccc2C(=O)N/N=C/c2ccncc2)cc1OC	10.7	1.03 µM [rising, partial curve, poor fit]	5.17 µM [rising, partial curve, poor fit]
COc1ccc(OC)c(S(=O)(=O)N2CCCC2C(=O)NC(C)c2ccccc2)c1 (stereo not given)	-5.77	–	–
COc1ccc(-c2csc(C3=C(O)CN(Cc4ccc(Cl)cc4)C3=N)n2)cc1OC	-2.63	1.16 µM [rising, partial curve]	0.184 µM [rising, partial curve, poor fit]
CN(C)c1ccc(-c2ccc([C@H]3[C@@H]4C=CCC[C@@]4(C)C(=O)N3Cc3ccccc3)c(F)c2)cc1	-29.5	29.1 µM [falling, single point]	–
Cc1ccc(CNc2ncc(-c3ccc4c(c3)OCO4)n2C)cc1	4.61	4.61 µM [rising, partial curve]	–
CC(=O)N1CCN(C(=O)c2ccccc2NS(=O)(=O)c2ccc(F)cc2)CC1	17.1	25.9 µM [falling, single point]	–
Cn1c(=O)c(C(=O)CN2CCCc3ccccc32)c(N)n(Cc2ccccc2)c1=O	-33.3	18.4 µM [falling, single point]	18.4 µM [falling, single point]
Cc1ccccc1C(=O)OCc1cnc(Cl)s1	9.59	1.16 µM [falling, single point]	–
CCOCCSc1nnc2nc(C)cc(C)n12	10.8	–	–
COc1ccc(N2CCN(C(=O)c3cc(-c4ccc(F)cc4)[nH]c3C)CC2)cc1	-14.1	–	–
CCN(CC(=O)Nc1c(F)cccc1F)C(=O)c1ccc(-c2ccc(C(C)=O)cc2)o1	10.5	0.058 µM [falling, full curve, poor fit]	–
Cc1ccccc1/C=N/NC(=O)Cn1cnc([N+](=O)[O-])n1	8.63	29.1 µM [falling, single point]	–
Cc1ccc(/C=C/C(=O)Nc2ccc([N+](=O)[O-])cc2)o1	-35.8	–	7.31 µM [falling, full curve, poor fit]
Cc1ccc(S(=O)(=O)N2CCC(C(=O)N/N=C/c3ccncc3)CC2)cc1	-51.2	–	–

3 compounds already listed, arranged by molecular weight, rising.

| SMILES | cell number change [%] | AC50 [1] | AC50 [2] |
| --- | --- | --- | --- |
| Cc1ccccc1C(=O)OCc1cnc(Cl)s1 | 9.59 | 1.16 µM [falling, single point] | – |
| Cc1ccc(CNc2ncc(-c3ccc4c(c3)OCO4)n2C)cc1 | 4.61 | 4.61 µM [rising, partial curve] | – |
| Cc1cc(Cl)c2oc(C(=O)N3CCC(O)(c4ccccc4)CC3)c(C)c2c1 | -26.5 | 29.1 µM [rising, single point] | – |
